Source: ChEMBL document CHEMBL4321846, “Discovery of a Potent and Selective Oral Inhibitor of ERK1/2 (AZD0364) That Is Efficacious in Both Monotherapy and Combination Therapy in Models of Nonsmall Cell Lung Cancer (NSCLC)” (J Med Chem, 2019)
pIC50: −log10 of the molar value.

Amino acid sequences for entries named in this document (tags omitted). A change or cut given only in a name is not applied to a line headed by its entry.
UniProt Q12809: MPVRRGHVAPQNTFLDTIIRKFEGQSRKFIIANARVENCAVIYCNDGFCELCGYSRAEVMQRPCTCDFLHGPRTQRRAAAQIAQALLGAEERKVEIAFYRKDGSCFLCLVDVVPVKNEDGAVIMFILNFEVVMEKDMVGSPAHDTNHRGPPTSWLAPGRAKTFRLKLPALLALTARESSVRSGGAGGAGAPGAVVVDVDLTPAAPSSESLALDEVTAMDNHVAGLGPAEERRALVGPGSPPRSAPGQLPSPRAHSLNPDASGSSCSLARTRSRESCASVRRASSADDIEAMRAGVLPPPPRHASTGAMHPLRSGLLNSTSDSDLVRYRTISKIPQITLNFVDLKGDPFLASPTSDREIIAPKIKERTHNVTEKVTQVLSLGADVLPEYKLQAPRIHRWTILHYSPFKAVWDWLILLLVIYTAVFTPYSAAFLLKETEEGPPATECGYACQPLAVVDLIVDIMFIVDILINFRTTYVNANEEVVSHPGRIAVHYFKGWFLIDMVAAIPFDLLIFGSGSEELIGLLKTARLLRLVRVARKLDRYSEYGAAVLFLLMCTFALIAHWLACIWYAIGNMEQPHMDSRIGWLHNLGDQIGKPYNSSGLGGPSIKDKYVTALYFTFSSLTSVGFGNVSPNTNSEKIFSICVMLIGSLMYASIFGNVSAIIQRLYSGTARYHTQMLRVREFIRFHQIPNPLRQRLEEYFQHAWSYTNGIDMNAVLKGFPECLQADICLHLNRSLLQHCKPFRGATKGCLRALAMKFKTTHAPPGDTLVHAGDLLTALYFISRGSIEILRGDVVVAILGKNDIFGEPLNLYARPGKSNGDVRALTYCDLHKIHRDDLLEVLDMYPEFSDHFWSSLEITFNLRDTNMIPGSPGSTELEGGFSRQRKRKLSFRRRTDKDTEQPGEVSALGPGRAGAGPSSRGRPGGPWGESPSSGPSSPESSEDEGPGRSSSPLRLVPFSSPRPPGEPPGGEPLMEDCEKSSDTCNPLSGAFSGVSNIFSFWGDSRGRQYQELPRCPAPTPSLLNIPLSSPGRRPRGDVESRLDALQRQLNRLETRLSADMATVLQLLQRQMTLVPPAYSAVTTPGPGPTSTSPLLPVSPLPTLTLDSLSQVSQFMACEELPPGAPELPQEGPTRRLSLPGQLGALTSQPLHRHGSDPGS

Molecular target: Voltage-gated inwardly rectifying potassium channel KCNH2 (Homo sapiens, UniProt Q12809)

## COC[C@H]1Cn2cc(-c3nc(Nc4ccnn4C)ncc3C)cc2C(=O)N1Cc1cccc(C)n1
  pIC50: 4.70
